For part of these data: Construct, isoform or probe ends are uncertain for at least one entry.
Columns and labels:
[1] = molecular target: LAG-3 (lymphocyte activation gene 3) (Homo sapiens) (UniProt P18627); experiment: pull-down; conditions: text says minimal to no binding (FIG. 1E), purified recombinant protein, label: 5'-biotin, single-stranded DNA, variant of 5'Bio-B4
[2] = molecular target: LAG-3 (in LAG-3/MHC-II luciferase reporter bioassay) (UniProt P18627); experiment: activity in cells; conditions: disrupts LAG-3/MHC-II interaction, protein on the cell surface, single-stranded DNA, dose not given here

Amino acid sequences for entries named in this document (tags omitted). Residues count along the entry.
UniProt P18627, 23-450: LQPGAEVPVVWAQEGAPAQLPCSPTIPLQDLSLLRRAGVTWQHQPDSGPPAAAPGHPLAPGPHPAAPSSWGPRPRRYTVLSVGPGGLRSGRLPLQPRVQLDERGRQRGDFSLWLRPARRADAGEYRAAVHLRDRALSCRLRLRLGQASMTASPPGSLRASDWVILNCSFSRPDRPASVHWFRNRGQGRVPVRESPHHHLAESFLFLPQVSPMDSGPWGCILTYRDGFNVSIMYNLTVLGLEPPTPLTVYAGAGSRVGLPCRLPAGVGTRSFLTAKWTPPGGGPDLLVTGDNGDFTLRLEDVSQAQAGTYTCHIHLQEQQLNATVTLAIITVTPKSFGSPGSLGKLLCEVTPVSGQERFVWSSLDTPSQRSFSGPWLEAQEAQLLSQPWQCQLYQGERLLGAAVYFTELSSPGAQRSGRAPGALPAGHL
UniProt P18627, 23-525: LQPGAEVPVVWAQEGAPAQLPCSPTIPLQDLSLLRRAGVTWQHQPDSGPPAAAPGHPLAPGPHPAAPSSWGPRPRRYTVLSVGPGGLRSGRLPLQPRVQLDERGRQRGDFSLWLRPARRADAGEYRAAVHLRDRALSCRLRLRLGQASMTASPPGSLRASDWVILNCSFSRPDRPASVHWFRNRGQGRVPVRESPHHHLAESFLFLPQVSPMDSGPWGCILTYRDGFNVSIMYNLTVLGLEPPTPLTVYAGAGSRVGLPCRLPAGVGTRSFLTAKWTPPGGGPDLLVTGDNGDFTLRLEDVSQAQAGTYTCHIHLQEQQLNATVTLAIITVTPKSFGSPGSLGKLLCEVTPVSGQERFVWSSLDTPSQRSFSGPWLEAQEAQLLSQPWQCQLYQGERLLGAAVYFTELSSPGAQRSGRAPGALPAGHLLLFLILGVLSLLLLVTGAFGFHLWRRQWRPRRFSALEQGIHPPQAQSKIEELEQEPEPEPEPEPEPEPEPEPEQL

Sequence | functional effect of the aptamer [2] | further results
TTAGTTCAATACATGCGGGCGGCCACCGTGCTACA [5'Bio-B4-SL6] |  | Kd ([1]; most of conserved motif deleted): 124 nM
TCCCTACGGCGCTAACTGGGGGGGGTTAGTTCAATACATGCGGGCGGCCACCGTGCTACAAC [B4] | active | 
TCCCTACGGCGCTAACAGAGGGGGGGGTTAGCTGCTTTAACTCATGGCCACCGTGCTACAAC [D9] | active | 
TCCCTACGGCGCTAACTGGGGGGGGGTTAGACTTACACTCTTATTCGGCCACCGTGCTACAAC [B8] | active | 
GGGGGTTAGTTCAATACATGCGGGCGGCCACCGTG [5'Bio-B4-SL5] |  | Kd ([1]; part of conserved motif deleted): 91.3 nM
TCCCTACGGCGCTAACAGGGGGGGGGTTACTGCGCATGTATCTCAGGCCACCGTGCTACAAC [F4] | active | 
